Results taken from publication PMC6079455, “Discovery of Novel Caeridins from the Skin Secretion of the Australian White's Tree Frog, Litoria caerulea” (International Journal of Genomics, 2018).
Ends that are not written are not given here.

Assay: Secondary structure from CD spectra by K2D3
Format: physicochemical
Details: K2D3 programme, 100 μM peptide, 20°C, 10 mM NH4Ac with 50% TFE

Substance	α (helices)	β (strands)
N2H-GLLDSLLGGLGL-CONH2 [S5-Caeridin-1, novel Caeridin peptide from Litoria caerulea skin secretion, synthetic replicate, C-terminally amidated]	94.98%	0.01%
GLLDGLLGTLGL-NH2 [Caeridin-1]	86.68%	0.02%
GLFDIVGKLLGGLGL-NH2 [Caeridin-a1]	95.13%	0.02%
